Test results as given in article PMC10561728.
No constants are given. Whether binding was seen depends on the method and setting. Binding seen in cells or lysates may run through a third protein. Some binding calls cover weakened binding; strength is not graded here.

Amino acid sequences for entries named in this document (tags omitted).
UniProt P22366: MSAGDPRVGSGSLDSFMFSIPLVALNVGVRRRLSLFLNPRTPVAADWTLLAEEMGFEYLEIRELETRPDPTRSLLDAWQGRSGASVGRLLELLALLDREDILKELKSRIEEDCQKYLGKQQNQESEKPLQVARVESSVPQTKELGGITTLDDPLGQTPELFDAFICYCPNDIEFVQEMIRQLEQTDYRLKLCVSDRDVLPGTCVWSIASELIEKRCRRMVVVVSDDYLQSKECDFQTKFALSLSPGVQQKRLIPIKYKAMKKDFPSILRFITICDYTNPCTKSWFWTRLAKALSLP

B1: Tumor necrosis factor receptor-associated factor 4 (TRAF4) (protein, UniProt Q61382 1-470)
chain: MPGFDYKFLEKPKRRLLCPLCGKPMREPVQVSTCGHRFCDTCLQEFLSEGVFKCPEDQLPLDYAKIYPDPELEVQVLGLAIRCIHSEEGCRWSGPLRHLQGHLNTCSFNVVPCPNRCPAKLSRRDLPAHLQHDCPKRRLKCEFCGCDFSGEAYESHEGVCPQESVYCENKCGARMMRRLLAQHATSECPKRTQPCAYCTKEFVYDTIQSHQYQCPRLPVPCPNQCGVGTVAREDLPTHLKDSCSTAFVLCPFKESGCKHRCPKLAMGRHVEESVKPHLAMMCALVSRQRQELQELRRELEELSIGSDGVLIWKIGSYGRRLQEAKAKPNLECFSPAFYTHKYGYKLQVSAFLNGNGSGEGTHLSIYIRVLPGAFDNLLEWPFARRVTFSLLDQSDPGLAKPQHVTETFHPDPNWKNFQKPGTWRGSLDESSLGFGYPKFISHQDIRKRNYVRDDAVFIRASVELPRKILS
B2: tumor necrosis factor (TNF) receptor-associated factor 6 (TRAF6) (protein, UniProt P70196 1-530)
chain: MSLLNCENSCGSSQSSSDCCAAMAASCSAAVKDDSVSGSASTGNLSSSFMEEIQGYDVEFDPPLESKYECPICLMALREAVQTPCGHRFCKACIIKSIRDAGHKCPVDNEILLENQLFPDNFAKREILSLTVKCPNKGCLQKMELRHLEDHQVHCEFALVNCPQCQRPFQKCQVNTHIIEDCPRRQVSCVNCAVSMAYEEKEIHDQSCPLANIICEYCGTILIREQMPNHYDLDCPTAPIPCTFSVFGCHEKMQRNHLARHLQENTQLHMRLLAQAVHNVNLALRPCDAASPSRGCRPEDPNYEETIKQLESRLVRQDHQIRELTAKMETQSMYVGELKRTIRTLEDKVAEMEAQQCNGIYIWKIGNFGMHLKSQEEERPVVIHSPGFYTGRPGYKLCMRLHLQLPTAQRCANYISLFVHTMQGEYDSHLPWPFQGTIRLTILDQSEALIRQNHEEVMDAKPELLAFQRPTIPRNPKGFGYVTFMHLEALRQGTFIKDDTLLVRCEVSTRFDMGGLRKEGFQPRSTDAGV

These molecules were tested against T1, IL-33 receptor (ST2, suppression of tumorigenicity 2) (mouse (endogenous in mouse mTh2 cells)) (UniProt P14719) (assay: co-IP; lysates of in vitro-polarized mouse mTh2 cells treated with or without IL-33; Pierce IP Lysis Buffer (25 mM Tris-HCl pH 7.4, 150 mM NaCl, 1 mM EDTA, 1% NP-40, 5% glycerol); precipitated with 2 ug/mL anti-mouse ST2 antibody and Protein G magnetic beads; Western blot).
T1 sequence: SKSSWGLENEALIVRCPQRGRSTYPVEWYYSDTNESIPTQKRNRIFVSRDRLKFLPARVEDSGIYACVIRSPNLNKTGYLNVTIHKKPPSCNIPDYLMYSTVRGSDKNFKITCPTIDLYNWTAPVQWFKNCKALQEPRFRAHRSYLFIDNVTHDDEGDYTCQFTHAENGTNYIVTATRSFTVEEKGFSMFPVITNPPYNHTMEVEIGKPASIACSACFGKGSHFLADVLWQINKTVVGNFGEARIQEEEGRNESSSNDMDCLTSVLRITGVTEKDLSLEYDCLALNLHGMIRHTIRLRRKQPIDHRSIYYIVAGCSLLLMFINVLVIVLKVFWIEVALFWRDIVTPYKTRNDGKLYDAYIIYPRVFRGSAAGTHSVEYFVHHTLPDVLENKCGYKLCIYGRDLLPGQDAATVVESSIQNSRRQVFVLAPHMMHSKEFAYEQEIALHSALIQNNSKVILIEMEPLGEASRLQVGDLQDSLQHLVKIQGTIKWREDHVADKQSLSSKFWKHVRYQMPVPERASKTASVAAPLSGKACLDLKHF
“myeloid differentiation primary response protein 8 (MYD88) (from UniProt P22366 1-296)” was tested, and the binding was “binds”. In the case of B1, the binding is reported as “binds”. With B2 the binding was “binds”.
